Measurements from PubChem BioAssay AID504467 (National Center for Advancing Translational Sciences (NCATS), 2011).
Screen size: about 330,000 compounds; about 7,700 (2.3%) were called active. Inconclusive means that the source gave no clear call. Such entries were picked first, then a sample of the others. The call rests on the fitted dose curve; in most records, active means well fitted inhibition curve with a large enough effect; inconclusive means small, poorly fitted or top-dose-only effect, or effect the other way; inactive means flat fitted curve, though single readings scatter. Potencies of inconclusive entries are doubtful fits and often do not repeat.

assay: qHTS screen for small molecules that inhibit ELG1-dependent DNA repair in human embryonic kidney (HEK293T) cells expressing luciferase-tagged ELG1; settings: HEK293T ELG1-luciferase reporter, luminescence, 16 h, DNA damage induced by 5-fluorouridine; series mostly up to 46.1 µM; further: nearly all actives have a fitted effect of over 55% in size
Method in brief: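 In this reporter screen, reduction of luminescence relative to DMSO vehicle indicated activity. Compounds and 5-fluorouridine were added together to 2,000 cells per well, incubated for 16 hr at 37 °C, then developed with ONE-Glo.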
Potency means the concentration at half of the fitted maximal effect.

| SMILES | Potency |
| --- | --- |
| CC1CCC(C(C)C)C(OCC(O)CN2CCN(Cc3ccccc3)CC2)C1 (centres undefined) | inconclusive: 11.6 µM [inhibitor, partial curve, poor fit] |
| CCN1CCN(C(=O)C2CCN(C(=O)c3cc4sccc4n3CC)CC2)CC1 | inactive |
| C=C(C)Cn1c(SCC(=O)O)nnc1-c1ccc(OC)cc1 | inactive |
| CCc1nnc(NC(=O)c2ccc(S(C)(=O)=O)cc2)s1 | inconclusive: 20.6 µM [activator, partial curve] |
| O=C(Nc1ccccc1)c1ccc(NCC2CCCO2)c(S(=O)(=O)N2CCOCC2)c1 (centres undefined) | active: 23.1 µM |
| CCCCCc1ccc(C2=NNC(=O)CC2)cc1 | inconclusive: 25.9 µM [activator, partial curve] |
| CS(=O)(=O)N1Cc2ccccc2CC1C(=O)Nc1ccccc1C(N)=O (centres undefined) | inactive |
| COc1ccc(/C=C/C(=O)Nc2ccc3nc4n(c(=O)c3c2)CCCC4)cc1 | inconclusive: 4.61 µM [inhibitor, full curve] |
| CCCOc1ccc(/C=C2\SC(=S)N(CC3CCCO3)C2=O)cc1 (centres undefined) | inactive |
| Cc1ccc(NC(=O)c2cn(CCC#N)nc2-c2cccs2)c([N+](=O)[O-])c1 | inconclusive: 29.1 µM [inhibitor, single point] |
| O=C1C=C(c2cccc(Cl)c2)C[C@@H](c2ccc3c(c2)OCO3)C1 | inconclusive: 18.3 µM [inhibitor, single point] |
| CN(C)c1cccc(-c2csc(N3CCC(C(N)=O)CC3)n2)c1 | inconclusive: 5.8 µM [activator, partial curve] |
| O=C(Oc1cccc(NC(=O)c2ccco2)c1)c1cccc(S(=O)(=O)N2CCCCC2)c1 | inconclusive: 23.1 µM [activator, single point] |
| CCc1ccc(C(=O)/C=C/c2ccc([N+](=O)[O-])o2)cc1 | inconclusive: 8.2 µM [inhibitor, single point] |
| COc1ccc(C(=O)C2CCCN(Cc3cc(Cl)ccc3O)C2)c(OC)c1 (centres undefined) | inconclusive: 29.1 µM [inhibitor, single point] |
| O=C(c1ccccc1-c1nc(-c2ccc(Cl)cc2)no1)N1CCCC1 | inconclusive: 6.51 µM [activator, partial curve] |
| CC(C)(C)Nc1nc(N2CCCC2)nc(N2CCCC2)n1 | inactive |
| O=C(COC(=O)c1ccc(NS(=O)(=O)c2cccs2)cc1O)NCc1ccccc1 | inactive |
| Cc1ccc(NC(=O)C2COc3ccccc3O2)cc1C (centres undefined) | inconclusive: 11.6 µM [activator, partial curve] |
| CC1(C)Oc2ccc3ccc(=O)oc3c2/C(=C/Nc2cccc(O)c2)C1=O | inconclusive: 0.164 µM [inhibitor, full curve] |
| CCCOc1ccc(C(=O)C(CCC(CNCC)C(=O)c2ccc(OCCC)cc2)CNCC)cc1 (centres undefined) | active: 23.1 µM |
| COC(=O)c1c(C)oc(C)c1S(=O)(=O)N1CCOCC1 | inconclusive: 4.61 µM [activator, full curve, poor fit] |

| SMILES | Potency |
| --- | --- |
| COc1ccc(C2CC(c3ccccc3)n3nc(NC(=O)c4cccs4)nc3N2)cc1 (centres undefined) | inconclusive: 29.1 µM [inhibitor, single point] |
| CC(C)c1ccc(/C=C2\C(=O)N(CCN3CCOCC3)C(=S)N2C)cc1 | inconclusive: 18.3 µM [inhibitor, partial curve, poor fit] |
| COc1ccccc1NC(=S)N(CCc1ccc(OC)c(OC)c1)Cc1ccccn1 | inactive |
| Cc1cnccc1CNC(=O)CC1C(=O)NCCN1CC(C)(C)C (centres undefined) | inactive |
| CCN(CC(=O)Nc1ccc(OC)cc1)CC(=O)Nc1sc2c(c1C(=O)OC)CCCC2 | inconclusive: 16.4 µM [inhibitor, partial curve] |
| CCS(=O)(=O)Nc1cccc(C2=NN(S(=O)(=O)c3ccc(F)cc3)C(c3cccs3)C2)c1 (centres undefined) | inconclusive: 29.1 µM [inhibitor, single point] |
| CC1CCN(C(=S)NCCc2ccccc2)CC1 | inconclusive: 20.6 µM [activator, partial curve] |
| Cc1noc(C)c1NC(=O)Nc1cccc2c1O[C@@H](CN(C)Cc1ccc3c(c1)OCO3)[C@@H](C)CN([C@H](C)CO)C2=O | inconclusive: 20.6 µM [activator, partial curve, poor fit] |
| O=[N+]([O-])c1cc(-c2nc3nc4ccccc4nc3n2CCc2ccccc2)cc([N+](=O)[O-])c1 | inactive |
| Cc1cccc(NNC(=O)C2CCC2)c1 | inconclusive: 18.3 µM [inhibitor, partial curve] |
| Cc1ccc(OCc2cc(C(=O)NCCc3cccnc3)no2)cc1C | inconclusive: 9.2 µM [activator, partial curve] |
| Cc1ccccc1C(=O)NNC(=O)C(=O)N1CCCCC1 | inactive |
| O=c1nc(Nc2ccccc2)sc2ccc([N+](=O)[O-])cc12 | inconclusive: 11.6 µM [activator, partial curve, poor fit] |
| CN(C)CCCSc1nc(-c2ccccc2)nc2c1CCC2 | inactive |
| Cc1nn(-c2ccccc2)c(N)c1N=Nc1ccc(Cl)cc1 | inconclusive: 8.2 µM [activator, partial curve] |
| CCN(CC(=O)Nc1cccc(OC)c1)CC(=O)Nc1cccc2ccccc12 | inconclusive: 16.4 µM [inhibitor, single point] |
| COc1ccc(OCCNC(=O)c2cccc(Oc3ccc(C(F)(F)F)cc3[N+](=O)[O-])c2)cc1 | inconclusive: 8.2 µM [inhibitor, partial curve] |
| Cc1ccc(C(CC(=O)O)NC(=O)c2ccc(S(=O)(=O)N3CC(C)OC(C)C3)cc2)cc1 (centres undefined) | inactive |
| CN(C)/C=C/C(=O)c1cnc(-c2ccccc2Cl)s1 | inconclusive: 14.6 µM [activator, partial curve] |
| O=C1NCCCC1C(=O)N/N=C/c1cc([N+](=O)[O-])ccc1O (centres undefined) | inconclusive: 20.6 µM [inhibitor, single point] |
| O=C(NCc1ccccc1)c1cc(-c2cccc(O)c2)on1 | inconclusive: 29.1 µM [activator, single point] |
| Nc1nonc1-c1nc2ccccc2n1CC(=O)N/N=C/c1ccc(-c2cccc(C(=O)O)c2)o1 | inconclusive: 18.3 µM [activator, partial curve, poor fit] |

Rewritten as tab-separated lines: entries from further up
SMILES	Potency
CC(C)c1ccc(/C=C2\C(=O)N(CCN3CCOCC3)C(=S)N2C)cc1	inconclusive: 18.3 µM [inhibitor, partial curve, poor fit]
CCN(CC(=O)Nc1ccc(OC)cc1)CC(=O)Nc1sc2c(c1C(=O)OC)CCCC2	inconclusive: 16.4 µM [inhibitor, partial curve]
Cc1nn(-c2ccccc2)c(N)c1N=Nc1ccc(Cl)cc1	inconclusive: 8.2 µM [activator, partial curve]
